Drawing on the supplement of paper PMC7889204, this text covers cell mass for 40 compounds.

Counter-ions that a name gives are not always drawn. The list shows a part of the results. Single values are uncertain, as repeats are few or missing.

In this experiment the test system is C6. The experiment can be described thus: cell mass (Coomassie absorbance) after combination of library compound with HMBA, relative to vehicle control (fraction); higher = more remaining cells (less growth inhibition).
For the compound `CCO[C@@H]1OC(=O)C[C@@H]1NC(=O)[C@@H]1CCCN1C(=O)[C@@H](NC(=O)c1ccc(N)c(Cl)c1)C(C)(C)C` + CC(=O)NCCCCCCNC(C)=O [hexamethylene bisacetamide], the cell mass stood at 0.702. Turning to `O=C1[C@H](Cc2ccc(O)cc2)N2C(=O)CCN(C(=O)NCc3ccccc3)[C@H]2CN1Cc1cccc2ccccc12` + CC(=O)NCCCCCCNC(C)=O [hexamethylene bisacetamide], the cell mass was determined as 0.433. On to `O=C(Nc1c[nH]nc1-c1nc2ccc(CN3CCOCC3)cc2[nH]1)NC1CC1` + CC(=O)NCCCCCCNC(C)=O [hexamethylene bisacetamide], for which the cell mass was 0.259. On to `C/C(=C\C(=O)Nc1ccccc1C(=O)O)c1ccc2ccccc2c1` + CC(=O)NCCCCCCNC(C)=O [hexamethylene bisacetamide], for which the cell mass was 0.41.

As for `Oc1nc(-c2ccc(C(F)(F)F)cc2)nc2c1CSCC2` + CC(=O)NCCCCCCNC(C)=O [hexamethylene bisacetamide], the cell mass was 0.454. For the compound `O=C1Nc2ccccc2/C1=C1/Nc2ccccc2C1=O` [Indirubin] + CC(=O)NCCCCCCNC(C)=O [hexamethylene bisacetamide], the cell mass worked out at 0.367. On to `Cc1cc(Nc2cc(CN3CCOCC3)c3nc(C)c(Cc4ccc(Cl)cc4F)n3n2)n[nH]1` + CC(=O)NCCCCCCNC(C)=O [hexamethylene bisacetamide], for which the cell mass is 0.467. In the case of `CC(=O)Nc1nc(C)c(-c2ccc(Cl)c(S(=O)(=O)NCCO)c2)s1` + CC(=O)NCCCCCCNC(C)=O [hexamethylene bisacetamide], the cell mass was 0.387.

For `COc1cccc(-c2cc(=O)c3ccccc3o2)c1N` + CC(=O)NCCCCCCNC(C)=O [hexamethylene bisacetamide], the cell mass was found to be 0.634. For the compound `COC1=C2C[C@@H](C)C[C@H](OC)[C@H](O)[C@@H](C)/C=C(\C)[C@H](OC(N)=O)[C@@H](OC)/C=C\C=C(/C)C(=O)NC(=CC1=O)C2=O` [Geldanamycin] + CC(=O)NCCCCCCNC(C)=O [hexamethylene bisacetamide], the cell mass worked out at 0.384. The value for `O=P(O)(O)C(O)(Cn1ccnc1)P(=O)(O)O` [Zoledronic Acid] + CC(=O)NCCCCCCNC(C)=O [hexamethylene bisacetamide] was 0.377; that for `Cc1cc(Nc2cc(N3CCN(C)CC3)nc(/C=C/c3ccccc3)n2)n[nH]1` + CC(=O)NCCCCCCNC(C)=O [hexamethylene bisacetamide] was 0.379; that for `CCOc1ccccc1OCCN[C@H](C)Cc1ccc(OC)c(S(N)(=O)=O)c1` [Tamsulosin hydrochloride] + CC(=O)NCCCCCCNC(C)=O [hexamethylene bisacetamide] was 0.476. As for `COc1cc2nccc(Oc3ccc(NC(=O)Nc4cc(C)on4)c(Cl)c3)c2cc1OC` [AV-951(Tivozanib)] + CC(=O)NCCCCCCNC(C)=O [hexamethylene bisacetamide], the figure is 0.283; as for `CCOc1cc2ncc(C#N)c(Nc3ccc(F)c(Cl)c3)c2cc1NC(=O)/C=C/CN(C)C` [Pelitinib] + CC(=O)NCCCCCCNC(C)=O [hexamethylene bisacetamide], 0.474. The value for `CC(C)CC(=O)Nc1n[nH]c2c1CN(C(=O)C1CCN(C)CC1)C2(C)C` + CC(=O)NCCCCCCNC(C)=O [hexamethylene bisacetamide] was 0.825; that for `O=C(NCc1ccccc1)c1csc(Nc2ccncn2)n1` [Thiazovivin] + CC(=O)NCCCCCCNC(C)=O [hexamethylene bisacetamide] was 0.458.

Take `CC1=NN(c2ccc(C)c(C)c2)C(=O)/C1=N\Nc1cccc(-c2cccc(C(=O)O)c2)c1O` [Eltrombopag] + CC(=O)NCCCCCCNC(C)=O [hexamethylene bisacetamide]: the cell mass amounted to 0.568. As for `CC(=O)Nc1cccc(-n2c(=O)n(C3CC3)c(=O)c3c(Nc4ccc(I)cc4F)n(C)c(=O)c(C)c32)c1` + CC(=O)NCCCCCCNC(C)=O [hexamethylene bisacetamide], the figure is 0.417; as for `c1ccc2c(CCNc3ccc(Nc4ccncc4)cc3)c[nH]c2c1` + CC(=O)NCCCCCCNC(C)=O [hexamethylene bisacetamide], 0.359; as for `CC1=C(CC(=O)O)c2cc(F)ccc2/C1=C\c1ccc([S+](C)[O-])cc1` (stereo not given) [Sulindac] + CC(=O)NCCCCCCNC(C)=O [hexamethylene bisacetamide], 0.505. With `Cc1cc(Nc2nc(N[C@@H](C)c3ncc(F)cn3)ncc2Cl)[nH]n1` + CC(=O)NCCCCCCNC(C)=O [hexamethylene bisacetamide], the cell mass turned out to be 0.55.

Consider `C=CC(=O)Nc1cccc(Oc2nc(Nc3ccc(N4CCN(C)CC4)cc3OC)ncc2Cl)c1` + CC(=O)NCCCCCCNC(C)=O [hexamethylene bisacetamide], for which the cell mass is 0.43. Take `Cn1c(=O)c(F)c(Nc2ccc(I)cc2F)c2c(=O)n(C[C@@H](O)CO)cnc21` + CC(=O)NCCCCCCNC(C)=O [hexamethylene bisacetamide]: the cell mass stood at 0.328. The value for `C=CCn1c(=O)c2cnc(Nc3ccc(N4CCN(C)CC4)cc3)nc2n1-c1cccc(C(C)(C)O)n1` + CC(=O)NCCCCCCNC(C)=O [hexamethylene bisacetamide] was 0.583; that for `COc1nc(C)cnc1NS(=O)(=O)c1cccnc1-c1ccc(-c2nnco2)cc1` [Zibotentan(ZD4054)] + CC(=O)NCCCCCCNC(C)=O [hexamethylene bisacetamide] was 0.472; that for `O=C1NC(=O)C(=Cc2ccc(-c3ccc(F)cc3)o2)S1` (stereo in doubt) + CC(=O)NCCCCCCNC(C)=O [hexamethylene bisacetamide] was 0.695. `O=C(O)Cc1ccccc1Nc1c(Cl)cccc1Cl` [Diclofenac sodium] + CC(=O)NCCCCCCNC(C)=O [hexamethylene bisacetamide]: the cell mass came out at 0.832. `COCC[n+]1c2c(n(Cc3cnccn3)c1C)C(=O)c1ccccc1C2=O` + CC(=O)NCCCCCCNC(C)=O [hexamethylene bisacetamide]: the cell mass was determined as 0.702. As to `CCS(=O)(=O)c1cccc(-c2cc(C(=O)NC3CCN(C)CC3)c(C)c3[nH]c4ncc(C)cc4c23)c1` + CC(=O)NCCCCCCNC(C)=O [hexamethylene bisacetamide], the cell mass worked out at 0.676. Take `Cc1ccc(C(=O)N(CCCN)[C@@H](c2oc3cc(Cl)ccc3c(=O)c2Cc2ccccc2)C(C)C)cc1` + CC(=O)NCCCCCCNC(C)=O [hexamethylene bisacetamide]: the cell mass was found to be 0.59. Turning to `COc1cc(OC)c(/C=C/S(=O)(=O)Cc2ccc(OC)c(NCC(=O)O)c2)c(OC)c1` + CC(=O)NCCCCCCNC(C)=O [hexamethylene bisacetamide], the cell mass stood at 0.202. In the case of `COc1ccc(S(=O)(=O)N(C(C)=O)c2ccccc2/C=C/c2cc[n+]([O-])cc2)cc1` + CC(=O)NCCCCCCNC(C)=O [hexamethylene bisacetamide], the cell mass turned out to be 0.382. With `CCCS(=O)(=O)Nc1ccc(F)c(C(=O)c2c[nH]c3ncc(-c4ccc(Cl)cc4)cc23)c1F` + CC(=O)NCCCCCCNC(C)=O [hexamethylene bisacetamide], the cell mass was 0.341. As to `CCOc1ccn(-c2ccc(F)cc2)c(=O)c1C(=O)Nc1ccc(Oc2ccnc(N)c2Cl)c(F)c1` + CC(=O)NCCCCCCNC(C)=O [hexamethylene bisacetamide], the cell mass amounted to 0.403. Consider `Cc1cc(Cl)ccc1OCCCC(=O)NO` [Droxinostat] + CC(=O)NCCCCCCNC(C)=O [hexamethylene bisacetamide], for which the cell mass was 0.456. In the case of `N#Cc1c(O)c2c(-c3ccc(-c4ccccc4O)cc3)csc2[nH]c1=O` + CC(=O)NCCCCCCNC(C)=O [hexamethylene bisacetamide], the cell mass came out at 0.631.

With `NC(=O)c1cccc2[nH]c(-c3ccc(C4CCCN4)cc3F)nc12` (stereo not given) + CC(=O)NCCCCCCNC(C)=O [hexamethylene bisacetamide], the cell mass was 0.607.

As to `CC[C@@H]1C(=O)N(C)c2cnc(Nc3ccc(C(=O)N[C@H]4CC[C@H](N5CCN(CC6CC6)CC5)CC4)cc3OC)nc2N1C(C)C` + CC(=O)NCCCCCCNC(C)=O [hexamethylene bisacetamide], the cell mass was determined as 0.197. Take `CCC(=O)NCC[C@@H]1CCc2ccc3c(c21)CCO3` [Ramelteon(TAK-375)] + CC(=O)NCCCCCCNC(C)=O [hexamethylene bisacetamide]: the cell mass stood at 0.377.
